According to PMC12750218 (ACS Omega, 2025):

System: human α1-acid glycoprotein (AGP)
Assay: Isothermal titration calorimetry of AGP with APR enantiomers
Format: binding
Details: ITC, aqueous 5% DMSO, 25 °C, One Set of Sites model

Row | SMILES | Stoichiometric parameter (n)
1 | CCOc1cc([C@@H](CS(C)(=O)=O)N2C(=O)c3cccc(NC(C)=O)c3C2=O)ccc1OC [S-APR, apremilast] | 0.8 ± 0.2
2 | CCOc1cc([C@H](CS(C)(=O)=O)N2C(=O)c3cccc(NC(C)=O)c3C2=O)ccc1OC [R-APR, apremilast] | 1.3 ± 0.3
